Results as given in patent US20100266591A1, “METHOD OF TREATING ERYTHROPOIETIN HYPORESPONSIVE ANEMIAS” (priority 2008, published 2010).
At least one compound was matched to its structure with a doubt left. Positions of bridges follow the written chain, without caps; N, C: chain ends. Residues, ends and D or L forms follow the SMILES beside them.

Target: T1, EPO-R (Homo sapiens, UniProt P19235)
T1 sequence (P19235 25-508): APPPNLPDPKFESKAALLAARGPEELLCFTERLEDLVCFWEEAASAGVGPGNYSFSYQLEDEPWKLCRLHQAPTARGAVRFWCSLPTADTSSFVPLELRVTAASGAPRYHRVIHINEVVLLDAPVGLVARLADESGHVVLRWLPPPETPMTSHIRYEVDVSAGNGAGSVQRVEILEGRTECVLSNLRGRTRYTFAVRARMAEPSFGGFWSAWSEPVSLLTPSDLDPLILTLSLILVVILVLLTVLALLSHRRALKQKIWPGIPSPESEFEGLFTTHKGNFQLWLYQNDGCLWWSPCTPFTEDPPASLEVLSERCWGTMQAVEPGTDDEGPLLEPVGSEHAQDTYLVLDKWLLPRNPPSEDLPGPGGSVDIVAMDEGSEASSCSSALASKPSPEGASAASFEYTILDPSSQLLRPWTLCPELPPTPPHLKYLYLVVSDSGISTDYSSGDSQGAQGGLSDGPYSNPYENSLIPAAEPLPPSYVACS
Experiment: EPO-R binding affinity
Settings: monomeric peptide

Compound: CC(C)C[C@@H]1NC(=O)[C@@H]2CCCN2C(=O)CNC(=O)[C@H](Cc2ccccc2)NC(=O)[C@H](Cc2c[nH]cn2)NC(=O)[C@@H](NC(=O)[C@H](CO)NC(=O)[C@H](Cc2ccc(O)cc2)NC(=O)[C@@H](NC(=O)CNC(=O)CN)[C@@H](C)O)CSSC[C@@H](C(=O)N[C@@H](CCCCN)C(=O)N2CCC[C@H]2C(=O)N[C@@H](CCC(N)=O)C(=O)NCC(=O)NCC(=O)O)NC(=O)[C@H](C(C)C)NC(=O)[C@H](Cc2c[nH]c3ccccc23)NC(=O)[C@H]([C@@H](C)O)NC1=O [EMP-1] (H-GGTYSCHFGPLTWVCKPQGG-OH; disulfide 6-15 (inferred); N-terminus and C-terminus assumed)
- Kd: ~200 nM
